Source: PubChem BioAssay AID504786 (Drosophila RNAi Screening Center, 2011)

- Purpose: 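Knock-downs reducing HIF reporter induction by the iron chelator DFO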 (primary screen)
- Cells: Drosophila S2 cells with a stable HIF luciferase reporter
- Reagents: long dsRNA against Drosophila genes, about 0.2 µg dsRNA per well of a 384-well plate
- Duration: three days of knock-down, then 20 h of DFO before reading
- Treatment: desferrioxamine (DFO) at 100 µM, an iron chelator that mimics hypoxia, for 20 h
- Measured: 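HIF reporter luminescence in cells given 100 µM DFO for 20 h, using the mouse ldh-a hypoxia-response element, scored as per-plate z-scores; higher means greater loss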
- Scale: z-score: higher = stronger loss of HIF reporter signal
The deposit covers about 21,000 reagents; this is an unselected part of those that have a named target and a result. 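Primary screen; positive scores mean lost reporter signal, so the sign may be inverted from the usual convention.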 A plus sign joins genes that one reagent is predicted to hit. Not all columns of the deposit are shown.

For TwdlS (GeneID 43209) [DRSC14737] the deposit lists z-score, replicate 1 = -0.4.
CG6901 (GeneID 41977) [DRSC16129] gave z-score, replicate 1 = -0.1.
With knock-down of Tsp42Eh (GeneID 35617) [DRSC06190], the record shows z-score, replicate 1 = -0.3.
With knock-down of Osi9 (GeneID 40763) [DRSC12278], the record shows z-score, replicate 1 = -0.4.
Knock-down of Rnf146 (GeneID 40144) [DRSC11045] came out at: z-score, replicate 1 = -0.4.
Depletion of PKD (GeneID 42203) [DRSC16200] gave: z-score, replicate 1 = -0.2.
For Cftr (GeneID 42928) [DRSC15872] the deposit lists z-score, replicate 1 = -0.3.
Against CG18682 (retired record) (GeneID 50098) [DRSC15373], the entry reads z-score, replicate 1 = -0.4.
CG18682 (retired record) (GeneID 50098) [DRSC15374] gave z-score, replicate 1 = -0.3.
After knock-down of mahe (GeneID 31707) [DRSC17755], the screen gave z-score, replicate 1 = -0.5.
With knock-down of CG34007 (GeneID 3885610) [DRSC01790], the screen gave z-score, replicate 1 = -0.5.
Depletion of CG3699 (GeneID 31046) [DRSC18171] resulted in: z-score, replicate 1 = -0.4.
Silencing of CG3699 (GeneID 31046) [DRSC18642] came out at: z-score, replicate 1 = -0.3.
Silencing of CG7974 (GeneID 38207) [DRSC08607] gave: z-score, replicate 1 = -0.2.
Knock-down of CG15471 (GeneID 31412) [DRSC18054] gave: z-score, replicate 1 = -0.3.
CG15394 (GeneID 33446) [DRSC00408] gave z-score, replicate 1 = 0.
After knock-down of CG10657 (GeneID 39423) [DRSC09768], the screen gave z-score, replicate 1 = -0.3.
With knock-down of CG14803 (GeneID 31142) [DRSC18556], the screen gave z-score, replicate 1 = -0.2.
With knock-down of Kr (GeneID 38012) [DRSC04622], the screen gave z-score, replicate 1 = -0.2.
Gem4b + Gem4c [DRSC17294] gave z-score, replicate 1 = -0.3.
mim (GeneID 2768716) [DRSC05013] scored z-score, replicate 1 = 1.4.
Silencing of CG7924 (GeneID 39574) [DRSC10931] gave: z-score, replicate 1 = -0.3.
After knock-down of Nach (GeneID 36864) [DRSC07478] the results were z-score, replicate 1 = 0.
Silencing of CG7304 (GeneID 39713) [DRSC10804] came out at: z-score, replicate 1 = -0.1.
Silencing of CG33330 (retired record) (GeneID 2768667) [DRSC13053] resulted in: z-score, replicate 1 = 2.9.
CG33330 (retired record) (GeneID 2768667) [DRSC15495] showed z-score, replicate 1 = -0.3.
Depletion of kl-2 (GeneID 3355181) [DRSC21136] gave: z-score, replicate 1 = -0.3.
Silencing of Alg13 (GeneID 43443) [DRSC14864] came out at: z-score, replicate 1 = -0.3.
For CG14687 (GeneID 41297) [DRSC14910], the values are z-score, replicate 1 = -0.4.
Against CG1674 (GeneID 43780) [DRSC17142], the entry reads z-score, replicate 1 = -0.4.
Depletion of CG3566 (GeneID 31562) [DRSC18311] came out at: z-score, replicate 1 = -0.2.
After knock-down of RapGAP1 (GeneID 34032) [DRSC02293], the record shows z-score, replicate 1 = -0.2.
Against RapGAP1 (GeneID 34032) [DRSC02294], the values are z-score, replicate 1 = -0.2.
After knock-down of RapGAP1 (GeneID 34032) [DRSC03406] the results were z-score, replicate 1 = -0.3.
HIP + HIP-R [DRSC18245] gave z-score, replicate 1 = -0.2.
After knock-down of Oseg1 (GeneID 38957) [DRSC10776] the results were z-score, replicate 1 = -0.2.
Silencing of CG7394 (GeneID 39294) [DRSC10835] gave: z-score, replicate 1 = 0.3.
With knock-down of CG30054 (GeneID 246420) [DRSC05354], the record shows z-score, replicate 1 = -0.2.
With knock-down of CG14246 (GeneID 3772140) [DRSC14741], the screen gave z-score, replicate 1 = -0.3.
With knock-down of CG3483 (GeneID 37900) [DRSC04371], the record shows z-score, replicate 1 = -0.2.

6 entries already listed, sorted by “z-score, replicate 1”, descending.
PKD (GeneID 42203) [DRSC16200]: z-score, replicate 1 = -0.2
Cftr (GeneID 42928) [DRSC15872]: z-score, replicate 1 = -0.3
CG18682 (retired record) (GeneID 50098) [DRSC15374]: z-score, replicate 1 = -0.3
Rnf146 (GeneID 40144) [DRSC11045]: z-score, replicate 1 = -0.4
CG18682 (retired record) (GeneID 50098) [DRSC15373]: z-score, replicate 1 = -0.4
mahe (GeneID 31707) [DRSC17755]: z-score, replicate 1 = -0.5
